Results: article PMC10896979
Results are given in words; binding and its absence hold for the method and conditions named. For some assays here: Binding seen in cells or lysates may run through a third protein. Some results given as binding are weak or reduced against the parent protein; the word gives no strength. For some assays here: Tags and fused reporters may be left off the sequences shown.

Columns and labels:
[1] = biological target: T1, Pdlim5 (endogenous, rat primary neurons) (rat (endogenous in rat primary neurons)) (UniProt Q62920); test: proximity ligation; endogenous proteins in rat primary hippocampal neurons fixed at DIV4; Duolink PLA kit; puncta counted in processes
T1 sequence: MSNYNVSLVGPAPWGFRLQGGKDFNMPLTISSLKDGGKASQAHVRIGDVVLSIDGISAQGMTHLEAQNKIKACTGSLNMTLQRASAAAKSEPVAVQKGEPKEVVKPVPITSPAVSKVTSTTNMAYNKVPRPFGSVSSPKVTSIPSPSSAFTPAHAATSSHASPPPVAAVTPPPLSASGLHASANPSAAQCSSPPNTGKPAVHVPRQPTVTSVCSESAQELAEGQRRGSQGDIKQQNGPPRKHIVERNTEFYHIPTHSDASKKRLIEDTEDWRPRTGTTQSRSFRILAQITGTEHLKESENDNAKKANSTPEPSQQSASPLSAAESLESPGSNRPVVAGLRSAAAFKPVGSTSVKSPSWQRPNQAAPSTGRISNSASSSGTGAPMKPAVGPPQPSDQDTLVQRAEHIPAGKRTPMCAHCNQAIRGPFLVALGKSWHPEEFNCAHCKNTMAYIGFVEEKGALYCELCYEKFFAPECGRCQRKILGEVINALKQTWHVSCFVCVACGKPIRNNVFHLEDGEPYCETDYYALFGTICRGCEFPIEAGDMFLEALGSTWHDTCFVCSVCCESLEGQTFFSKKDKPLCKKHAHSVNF

[2] = biological target: T1, Pdlim5 (endogenous, rat primary neurons) (rat (endogenous in rat primary neurons)); test: co-IP; endogenous proteins from rat primary cortical neurons lysed at DIV9; IP of Pdlim5 with blot of PalmD, and the inverse; Protein-A and Protein-G Dynabeads, 4°C
[3] = biological target: T2, PalmD (endogenous, rat primary neurons) (rat (endogenous in rat primary neurons)) (UniProt Q4KM62); test: as above
T2 sequence: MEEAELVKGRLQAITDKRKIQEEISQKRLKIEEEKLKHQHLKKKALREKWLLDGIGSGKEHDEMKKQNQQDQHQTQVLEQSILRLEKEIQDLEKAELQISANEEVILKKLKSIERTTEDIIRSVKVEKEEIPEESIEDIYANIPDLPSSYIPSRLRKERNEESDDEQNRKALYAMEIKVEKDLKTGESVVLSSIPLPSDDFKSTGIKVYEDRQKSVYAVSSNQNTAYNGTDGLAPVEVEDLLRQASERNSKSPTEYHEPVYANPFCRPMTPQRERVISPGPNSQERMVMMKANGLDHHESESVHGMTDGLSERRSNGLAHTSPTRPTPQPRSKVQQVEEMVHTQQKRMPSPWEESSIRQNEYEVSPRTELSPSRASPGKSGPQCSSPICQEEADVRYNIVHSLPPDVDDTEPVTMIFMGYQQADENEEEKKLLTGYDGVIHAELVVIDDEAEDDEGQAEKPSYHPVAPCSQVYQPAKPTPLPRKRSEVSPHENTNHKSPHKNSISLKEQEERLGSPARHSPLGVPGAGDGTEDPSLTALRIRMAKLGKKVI

[4] = biological target: T3, 6x Myc Pdlim5 full length (UniProt Q62920); test: co-IP; exogenous epitope-tagged constructs co-transfected in HEK293 cells, lysed 24-48 h later; Protein-A and Protein-G Dynabeads, 4°C
T3 sequence: T1 sequence

[5] = biological target: T4, GLS-Pdlim5 (UniProt Q62920); test: Golgi co-relocalization assay (GLS assay); Pdlim5 directed to the Golgi by an N-terminal GLS of mTOR, partner co-expressed in HT-22 cells; fixed 24 h after transfection, immunostaining, confocal microscopy
T4 sequence: T1 sequence

B1: PalmD (endogenous, rat primary neurons) (protein, UniProt Q4KM62 1-551)
chain: T2 sequence
**Q.** Which results are given for B1?
**A.** binding [1]: binds; binding [2]: binds

B2: Pdlim5 (endogenous, rat primary neurons) (protein, UniProt Q62920 1-591)
chain: T1 sequence
**Q.** How did the binding [3] turn out when B2 was run?
**A.** Its binding is “binds”.

B3: PalmD-GFP (protein, UniProt Q9NP74 1-551)
chain: MEEAELVKGRLQAITDKRKIQEEISQKRLKIEEDKLKHQHLKKKALREKWLLDGISSGKEQEEMKKQNQQDQHQIQVLEQSILRLEKEIQDLEKAELQISTKEEAILKKLKSIERTTEDIIRSVKVEREERAEESIEDIYANIPDLPKSYIPSRLRKEINEEKEDDEQNRKALYAMEIKVEKDLKTGESTVLSSIPLPSDDFKGTGIKVYDDGQKSVYAVSSNHSAAYNGTDGLAPVEVEELLRQASERNSKSPTEYHEPVYANPFYRPTTPQRETVTPGPNFQERIKIKTNGLGIGVNESIHNMGNGLSEERGNNFNHISPIPPVPHPRSVIQQAEEKLHTPQKRLMTPWEESNVMQDKDAPSPKPRLSPRETIFGKSEHQNSSPTCQEDEEDVRYNIVHSLPPDINDTEPVTMIFMGYQQAEDSEEDKKFLTGYDGIIHAELVVIDDEEEEDEGEAEKPSYHPIAPHSQVYQPAKPTPLPRKRSEASPHENTNHKSPHKNSISLKEQEESLGSPVHHSPFDAQTTGDGTEDPSLTALRMRMAKLGKKVI
**Q.** For B3, which binding [4] is on record?
**A.** The binding was “binds”.

B4: PalmD (expressed in HT-22 cells for the Golgi co-relocalization assay) (protein, UniProt Q9NP74 1-551)
chain: B3 chain
**Q.** Which binding [5] does the source give for B4 here?
**A.** The binding was “binds”.
